Data published in PubChem BioAssay AID1347131 (National Center for Advancing Translational Sciences (NCATS), 2019).
Out of some 410,000 compounds screened, about 2,000 (0.49%) were called active. The inconclusive results got no clear call from the source; some entries with a clear call stand among them for comparison. Calls follow the shape of the full dose curve; tested in HEK293 reporter line. A potency beside an inconclusive call is a rough fit, not a confirmed value.

Assay: qHTS Assay for Foot and Mouth Disease Virus Antivirals: Primary Screen against the MLPCN compound library; also: nearly all actives have a fitted effect of over 55% in size
Conditions: FMDV antiviral cell-based qHTS; series mostly up to 57.9 µM
Potency is read from the fitted curve at half-maximal effect.

SMILES | Potency
Cc1nnnn1/C(=C\c1ccccc1)C(=O)OCC(=O)NC(C)(C)C | inconclusive: 17.8 µM [inhibitor, partial curve, poor fit]
Cc1cc(C)c(CN2CCN(C(=O)Cn3cnc4c(NCc5ccccc5)ncnc43)CC2)c(C)c1 | inconclusive: 8.91 µM [inhibitor, partial curve, poor fit]
CCn1c(SCC(=O)Nc2cc(C)ccc2C)nc2c(c1=O)SC(C)C2 (configuration not stated) | inconclusive: 12.6 µM [inhibitor, partial curve]
Cc1ccc(S(=O)(=O)N2CCOCC2)cc1NC(=O)COc1ccc(C(=O)c2ccccc2)cc1 | inconclusive: 20 µM [inhibitor, partial curve, poor fit]
CC(=O)[C@@]1(O)CC[C@H]2[C@@H]3C[C@H](C)C4=CC(=O)CC[C@]4(C)[C@H]3CC[C@@]21C | inconclusive: 28.2 µM [inhibitor, partial curve, poor fit]
COC(=O)C1=Nc2ccccc2/C1=C\c1c(O)n(-c2ccc(OC)cc2)c(=O)[nH]c1=O | inconclusive: 8.91 µM [inhibitor, partial curve]
Cc1ccc(C(=O)Nc2cc(=O)n(C)c(=O)n2C)cc1C | inconclusive: 2.51 µM [inhibitor, full curve]
CC1CCc2c(sc3ncn(N)c(=N)c23)C1 (configuration not stated) | inconclusive: 3.16 µM [inhibitor, partial curve, poor fit]
COc1cccc2sc(N3CCN(c4nc5ccccc5s4)CC3)nc12 | inactive
CCn1c(SCC(=O)Nc2nc(-c3ccc(C)cc3)cs2)nnc1-c1ccccc1 | inconclusive: 12.6 µM [inhibitor, partial curve, poor fit]
CCOc1cc(C(=O)Nc2cccc(OCC(=O)N3CCOCC3)c2)cc(OCC)c1OCC | inconclusive: 7.08 µM [inhibitor, partial curve, poor fit]
CCOc1ccccc1NC(=O)c1ccc2nc[nH]c2c1 | inconclusive: 0.891 µM [inhibitor, full curve]
CS(=O)(=O)c1ncc(Cl)c(C(=O)Nc2c(C(=O)Nc3ccccc3)oc3ccccc23)n1 | inconclusive: 28.2 µM [inhibitor, partial curve, poor fit]
Cc1ccc(S(=O)(=O)N(C)c2c(C)ccc(S(N)(=O)=O)c2C)cc1 | inconclusive: 12.6 µM [inhibitor, partial curve, poor fit]
Cc1nn2c(-c3ccccc3)ccnc2c1-c1ccccc1 | inconclusive: 11.2 µM [inhibitor, single point]
COCCN(Cc1nc(-c2ccc(-c3ccccc3)cc2)oc1C)C(C)C | inconclusive: 39.8 µM [inhibitor, single point]
COc1cc(C(=O)OCC(=O)Nc2ccc(SC(F)F)cc2)cc(OC)c1OC | inconclusive: 35.5 µM [inhibitor, partial curve, poor fit]
O=C(Nc1cccc(Cl)c1)C1CCCN(c2nn3cc(-c4ccc(F)cc4)nc3s2)C1 (configuration not stated) | inconclusive: 15.8 µM [inhibitor, partial curve]
CC(C)(C)C(=O)N1CCc2cc(-c3csc(N)n3)ccc21 | inconclusive: 17.8 µM [inhibitor, single point]

SMILES | Potency
COc1cc2[nH]c(=O)n(Cc3ccc(C(=O)N4CCN(c5ccc(Cl)cc5)CC4)cc3)c(=O)c2cc1OC | inconclusive: 25.1 µM [inhibitor, partial curve, poor fit]
COc1ccc(/C=C2\CN(Cc3ccccc3)C/C(=C\c3ccc(OC)cc3)C2=O)cc1 | inactive
CN(C)c1ccc(C(=O)OCC(=O)NC2CCCCCC2)cc1 | inconclusive: 20 µM [inhibitor, partial curve, poor fit]
COc1cccc(-n2cnc3scc(-c4cccs4)c3c2=O)c1 | inactive
O=[N+]([O-])c1ccc(Sc2nccn2Cc2ccccc2)c([N+](=O)[O-])c1 | inconclusive: 28.2 µM [inhibitor, partial curve, poor fit]
COc1ccc2[nH]cc(CCNc3ccnc(-c4cccnc4)n3)c2c1 | inactive
CCC(=Nc1cccc(C(F)(F)F)c1)c1c(O)n(C)c(=O)n(C)c1=O | inconclusive: 14.1 µM [inhibitor, partial curve]
Oc1[nH]c2c(Cl)cc(Cl)cc2c1N=NC(=S)NCC1CCCO1 (configuration not stated) | inconclusive: 25.1 µM [inhibitor, partial curve, poor fit]
CC(=O)CSc1ccc(-c2nc3cc(C)c(C)cc3[nH]2)cn1 | inconclusive: 8.91 µM [inhibitor, full curve, poor fit]
CCOC(=O)Cc1nn(Cc2nc(-c3ccc(C#N)cc3)cs2)c(=O)c2ccccc12 | inconclusive: 17.8 µM [inhibitor, partial curve, poor fit]
OC(CN1CCN(c2ccccn2)CC1)Cn1c2ccccc2c2ccccc21 (configuration not stated) | inconclusive: 25.1 µM [inhibitor, partial curve, poor fit]
Oc1c(CN2CCCC(C(F)(F)F)C2)cc(Cl)c2ccccc12 (configuration not stated) | inconclusive: 22.4 µM [inhibitor, partial curve, poor fit]
CC1=CC2C(C(O)CC3(C)C2CC(C)C32OCOC23COCO3)C2(C)C/C(=C\O)C(=O)C=C12 (configuration not stated) | inconclusive: 39.8 µM [inhibitor, partial curve, poor fit]
CC(=O)Oc1ccc(Cn2c(C)c(C(=O)NCCC#N)sc2=O)cc1 | inconclusive: 22.4 µM [inhibitor, partial curve, poor fit]
Clc1ccc(-n2ncc3c(NC4CCCC4)ncnc32)cc1 | inconclusive: 15.8 µM [inhibitor, single point]
O=C(Cc1csc(Nc2nc(=S)[nH]c3ccccc23)n1)NCCCN1CCN(c2cccc(Cl)c2)CC1 | inconclusive: 7.08 µM [inhibitor, partial curve]
Cc1ccc(/C=C2/C(=N)N3N=C(CC(=O)N4CCCC4)SC3=NC2=O)o1 | inactive
COc1ccccc1CC1(C)C(=O)Nc2ccc(OC(F)(F)F)cc21 (configuration not stated) | inactive

Gathered by group: the entries above with a Cl atom (seven)
SMILES | Potency
CS(=O)(=O)c1ncc(Cl)c(C(=O)Nc2c(C(=O)Nc3ccccc3)oc3ccccc23)n1 | inconclusive: 28.2 µM [inhibitor, partial curve, poor fit]
O=C(Nc1cccc(Cl)c1)C1CCCN(c2nn3cc(-c4ccc(F)cc4)nc3s2)C1 (configuration not stated) | inconclusive: 15.8 µM [inhibitor, partial curve]
COc1cc2[nH]c(=O)n(Cc3ccc(C(=O)N4CCN(c5ccc(Cl)cc5)CC4)cc3)c(=O)c2cc1OC | inconclusive: 25.1 µM [inhibitor, partial curve, poor fit]
Oc1[nH]c2c(Cl)cc(Cl)cc2c1N=NC(=S)NCC1CCCO1 (configuration not stated) | inconclusive: 25.1 µM [inhibitor, partial curve, poor fit]
Oc1c(CN2CCCC(C(F)(F)F)C2)cc(Cl)c2ccccc12 (configuration not stated) | inconclusive: 22.4 µM [inhibitor, partial curve, poor fit]
Clc1ccc(-n2ncc3c(NC4CCCC4)ncnc32)cc1 | inconclusive: 15.8 µM [inhibitor, single point]
O=C(Cc1csc(Nc2nc(=S)[nH]c3ccccc23)n1)NCCCN1CCN(c2cccc(Cl)c2)CC1 | inconclusive: 7.08 µM [inhibitor, partial curve]
